Laboratory results: PubChem BioAssay AID686938 (Drosophila RNAi Screening Center, 2013)
Aim: 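Knock-downs reducing store-operated calcium influx in Drosophila cells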 (primary screen). Cell system: Drosophila S2R+ cells. Reagents: long dsRNA against Drosophila genes, about 0.25 µg dsRNA per well, roughly 10,000 cells. Duration: 5 days of knock-down before the calcium assay. Treatment: thapsigargin (SERCA pump blocker) to empty calcium stores; entry signal taken 4 min after adding it. Detection: 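Per-well fluo-4 fluorescence in two replicates, unnormalised, measured in resting cells and 4 min after store depletion by the SERCA blocker thapsigargin; ratio of the two present in few wells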. Scale: calcium entry signal: higher = stronger calcium signal after store depletion; resting calcium signal: higher = higher resting calcium signal. Rule for the call: 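Called when the plate z-score of the entry-to-rest ratio, mean of duplicates, falls below −3; wells with low overall dye signal (Fmax z below −2) or more than five off-targets excluded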. Meaning of the calls: active = strongly reduced calcium entry; inactive = no strong reduction.
The deposit covers about 23,000 reagents; below is a random part of those that have a named target and a result. Of all reagents, 75 (0.33%) are marked active. 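Raw plate signals without normalisation; calls rest on plate z-scores that were not deposited; ratio present for only 364 wells.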 Not stated in the record: the dose of the treatment.

CG8042 [DRSC09676]: calcium entry signal, replicate 1 (fluorescence units) = 4.54e7; calcium entry signal, replicate 2 (fluorescence units) = 3.70e7; resting calcium signal, replicate 1 (fluorescence units) = 3.17e7; resting calcium signal, replicate 2 (fluorescence units) = 1.57e7; activity call = inactive
CG45002 [DRSC20144]: calcium entry signal, replicate 1 (fluorescence units) = 3.55e7; calcium entry signal, replicate 2 (fluorescence units) = 3.39e7; resting calcium signal, replicate 1 (fluorescence units) = 1.97e7; resting calcium signal, replicate 2 (fluorescence units) = 1.69e7; activity call = inactive
Grasp65 [DRSC10917]: calcium entry signal, replicate 1 (fluorescence units) = 3.11e7; calcium entry signal, replicate 2 (fluorescence units) = 5.04e7; resting calcium signal, replicate 1 (fluorescence units) = 1.56e7; resting calcium signal, replicate 2 (fluorescence units) = 2.29e7; activity call = inactive
Klc (Kinesin light chain) [DRSC11203]: calcium entry signal, replicate 1 (fluorescence units) = 5.55e7; calcium entry signal, replicate 2 (fluorescence units) = 4.45e7; resting calcium signal, replicate 1 (fluorescence units) = 3.62e7; resting calcium signal, replicate 2 (fluorescence units) = 1.85e7; activity call = inactive
CG13884 [DRSC08354]: calcium entry signal, replicate 1 (fluorescence units) = 4.05e7; calcium entry signal, replicate 2 (fluorescence units) = 4.50e7; resting calcium signal, replicate 1 (fluorescence units) = 2.02e7; resting calcium signal, replicate 2 (fluorescence units) = 1.99e7; activity call = inactive
CG12229 [DRSC09868]: calcium entry signal, replicate 1 (fluorescence units) = 5.35e7; calcium entry signal, replicate 2 (fluorescence units) = 6.47e7; resting calcium signal, replicate 1 (fluorescence units) = 2.42e7; resting calcium signal, replicate 2 (fluorescence units) = 2.76e7; activity call = inactive
dpr16 (defective proboscis extension response 16) [DRSC12217]: calcium entry signal, replicate 1 (fluorescence units) = 4.38e7; calcium entry signal, replicate 2 (fluorescence units) = 3.06e7; resting calcium signal, replicate 1 (fluorescence units) = 1.97e7; resting calcium signal, replicate 2 (fluorescence units) = 1.50e7; activity call = inactive
dpr16 (defective proboscis extension response 16) [DRSC12249]: calcium entry signal, replicate 1 (fluorescence units) = 5.78e7; calcium entry signal, replicate 2 (fluorescence units) = 2.28e7; resting calcium signal, replicate 1 (fluorescence units) = 2.65e7; resting calcium signal, replicate 2 (fluorescence units) = 1.23e7; activity call = inactive
SCCRO (Squamous cell carcinoma-related oncogene) [DRSC10844]: calcium entry signal, replicate 1 (fluorescence units) = 3.07e7; calcium entry signal, replicate 2 (fluorescence units) = 2.82e7; resting calcium signal, replicate 1 (fluorescence units) = 1.42e7; resting calcium signal, replicate 2 (fluorescence units) = 1.28e7; activity call = inactive
CG13679 [DRSC10037]: calcium entry signal, replicate 1 (fluorescence units) = 3.58e7; calcium entry signal, replicate 2 (fluorescence units) = 4.79e7; resting calcium signal, replicate 1 (fluorescence units) = 1.73e7; resting calcium signal, replicate 2 (fluorescence units) = 2.36e7; activity call = inactive
CG13679 [DRSC22749]: calcium entry signal, replicate 1 (fluorescence units) = 3.66e7; calcium entry signal, replicate 2 (fluorescence units) = 3.76e7; resting calcium signal, replicate 1 (fluorescence units) = 2.06e7; resting calcium signal, replicate 2 (fluorescence units) = 1.69e7; activity call = inactive
pll (pelle) [DRSC17026]: calcium entry signal, replicate 1 (fluorescence units) = 3.29e7; calcium entry signal, replicate 2 (fluorescence units) = 3.51e7; resting calcium signal, replicate 1 (fluorescence units) = 1.57e7; resting calcium signal, replicate 2 (fluorescence units) = 1.73e7; activity call = inactive
cad (caudal) [DRSC03502]: calcium entry signal, replicate 1 (fluorescence units) = 1.98e7; resting calcium signal, replicate 1 (fluorescence units) = 1.20e7; activity call = inactive
cad (caudal) [DRSC23193]: calcium entry signal, replicate 1 (fluorescence units) = 3.85e7; calcium entry signal, replicate 2 (fluorescence units) = 4.37e7; resting calcium signal, replicate 1 (fluorescence units) = 1.95e7; resting calcium signal, replicate 2 (fluorescence units) = 1.86e7; activity call = inactive
Invadolysin [DRSC15527]: calcium entry signal, replicate 1 (fluorescence units) = 2.73e7; calcium entry signal, replicate 2 (fluorescence units) = 3.09e7; resting calcium signal, replicate 1 (fluorescence units) = 1.31e7; resting calcium signal, replicate 2 (fluorescence units) = 1.48e7; activity call = inactive
Slob (Slowpoke binding protein) [DRSC02296]: calcium entry signal, replicate 1 (fluorescence units) = 3.12e7; calcium entry signal, replicate 2 (fluorescence units) = 3.31e7; resting calcium signal, replicate 1 (fluorescence units) = 1.64e7; resting calcium signal, replicate 2 (fluorescence units) = 1.56e7; activity call = inactive
Slob (Slowpoke binding protein) [DRSC03436]: calcium entry signal, replicate 1 (fluorescence units) = 5.00e7; resting calcium signal, replicate 1 (fluorescence units) = 2.63e7; activity call = inactive
Nek2 [DRSC18124]: calcium entry signal, replicate 1 (fluorescence units) = 4.55e7; calcium entry signal, replicate 2 (fluorescence units) = 3.00e7; resting calcium signal, replicate 1 (fluorescence units) = 2.04e7; resting calcium signal, replicate 2 (fluorescence units) = 1.55e7; activity call = inactive
Srp68 (Signal recognition particle 68) [DRSC10475]: calcium entry signal, replicate 1 (fluorescence units) = 3.99e7; calcium entry signal, replicate 2 (fluorescence units) = 3.03e7; resting calcium signal, replicate 1 (fluorescence units) = 3.37e7; resting calcium signal, replicate 2 (fluorescence units) = 1.54e7; activity call = inactive
Tsp5D (Tetraspanin 5D) [DRSC18380]: calcium entry signal, replicate 1 (fluorescence units) = 3.40e7; calcium entry signal, replicate 2 (fluorescence units) = 4.40e7; resting calcium signal, replicate 1 (fluorescence units) = 1.64e7; resting calcium signal, replicate 2 (fluorescence units) = 2.16e7; activity call = inactive
hppy (happyhour) [DRSC07014]: calcium entry signal, replicate 1 (fluorescence units) = 4.90e7; calcium entry signal, replicate 2 (fluorescence units) = 3.71e7; resting calcium signal, replicate 1 (fluorescence units) = 2.10e7; resting calcium signal, replicate 2 (fluorescence units) = 1.92e7; activity call = inactive
hppy (happyhour) [DRSC07015]: calcium entry signal, replicate 1 (fluorescence units) = 4.48e7; calcium entry signal, replicate 2 (fluorescence units) = 3.40e7; resting calcium signal, replicate 1 (fluorescence units) = 1.84e7; resting calcium signal, replicate 2 (fluorescence units) = 1.68e7; activity call = inactive
hppy (happyhour) [DRSC07016]: calcium entry signal, replicate 1 (fluorescence units) = 4.70e7; calcium entry signal, replicate 2 (fluorescence units) = 3.52e7; resting calcium signal, replicate 1 (fluorescence units) = 1.91e7; resting calcium signal, replicate 2 (fluorescence units) = 1.75e7; activity call = inactive

Part of the list above, limited to “resting calcium signal, replicate 2 (fluorescence units)”:
CG45002 [DRSC20144]	1.69e7
Grasp65 [DRSC10917]	2.29e7
